From patent publication US8071325B2, “Flow cytometric method and kit for metal-induced sensitivity” (The Trustees of the University of Pennsylvania, priority 2004, dated 2011) come the findings set out here.

In the series the test system is T cells from a beryllium-sensitive individual. Nature of the series: Surface versus intracellular CD4/CD8 staining of CFSE-labeled T cells cultured with beryllium sulfate. It counts as cell-based, human. To be noted: seven days with 10 or 100 μM, representative example.

For `O=S(=O)([O-])[O-].[Be+2]` [Be, beryllium sulfate], the “CD8+ cells, surface and intracellular staining identical” value was found to be 7.6%. Moreover, the “CD4+ low population of the T cell population (surface staining)” value (gated on CD3+ T cells) is recorded as 37.3%. Besides, the “CD4+ CD8- cells with intracellular staining” value (permeabilized cells) was determined as 58.3%.
